Test results reported in PubChem BioAssay AID2685 (National Center for Advancing Translational Sciences (NCATS), 2010).
About 2,100 (0.66%) of roughly 320,000 compounds were called active. Calls follow the shape of the dose curve; as a rule, active = well fitted inhibition curve with a large enough effect in the signal ratio, with a control signal flat (not every such curve was filed as active); inconclusive = small, poorly fitted or top-dose-only effect, or effect the other way, or a change in a side signal; inactive = flat fitted curve, though single readings scatter; the % refers to the signal ratio. Inconclusive means that the source gave no clear call. Where the call is inconclusive, the potency comes from a doubtful curve fit.

Experiment: qHTS Assay for Lipid Storage Modulators in Drosophila S3 Cells
Settings: BODIPY lipid droplet fluorescence, 18-24 h, cells fed with added oleic acid; lipid storage change, negative = inhibition: at 46.1 µM (top of the series) unless noted
Outline: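 Drosophila S3 cells loaded with oleic acid (400 uM, as added) and compounds at several concentrations; lipid droplets imaged by 488-nm laser-scanning cytometry, 500–530 nm intensity and object ratio to cell channel. Percent activity normalized to 20 uM Triacsin C.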
% is scaled to controls: 0 for no effect and ±100 for the full control effect; potency is read from the fitted curve at half-maximal effect.

| Structure (SMILES) | Potency | lipid storage change, negative = inhibition |
| --- | --- | --- |
| Cc1ccc(NC(=O)C2CC(=O)N(c3ccc4c(c3)OCCO4)C2)nc1 (configuration not stated) | inconclusive: 2.91 µM [activator, partial curve] | – |
| CCc1ccc(C(O)(CNCc2ccccc2)c2ccccc2)cc1 (configuration not stated) | inconclusive: 29.1 µM [cytotoxic, single point] | – |
| COc1ccc(Cl)cc1NC(=O)CN(C)CC(=O)Nc1ccccc1N1CCOCC1 | – | inconclusive: 15.7% |
| O=C(COC(=O)c1ccc(F)cc1F)Nc1cccc(S(=O)(=O)N2CCOCC2)c1 | – | inconclusive |
| CCCC(CCC)C(=O)NNc1cc(=O)c2c(=O)n(C)c(=O)n(C)c2[nH]1 | – | inconclusive: -1.67% |
| CCCN(C(=O)c1cccc(-n2cccc2)c1)c1c(N)n(Cc2ccccc2)c(=O)[nH]c1=O | – | inconclusive |
| CCCc1ccc(OCC(=O)O)cc1 | – | inconclusive: -46% |
| Cc1nccn1CCCNC(=O)CC1C(=O)NCCN1Cc1ccccc1C(F)(F)F (configuration not stated) | – | inconclusive: -22% |
| Cc1ccc(-c2nnc3n2CCCCC3)cc1 | – | inconclusive: 8.25% |
| CCC(C)C(NC(N)=O)C(=O)Nc1ccc(C)c(Cl)c1 (configuration not stated) | inconclusive: 6.51 µM [falling, single point] | – |
| CCc1nnc(NC(=O)c2cc(C)nc3ccccc23)s1 | – | inconclusive: 11.6% |
| Cc1ccc(N(CC(=O)NCC2CCCO2)C(=O)CCC(=O)Nc2cc(C)on2)cc1 (configuration not stated) | inconclusive: 0.0046 µM [activator, partial curve, poor fit] | – |
| NCCCN1CCOCC1 | – | inconclusive: -194% |
| COC(=O)C1C2C=CC3(CN(CC4CCCO4)C(=O)C13)O2 (configuration not stated) | inconclusive: 29.1 µM [falling, single point] | – |
| Cc1ccc(-c2cc3nc(-c4ccccc4)cc(N)n3n2)cc1 | – | inconclusive: 46% |
| COc1ccccc1C(=O)NCCC(=O)Nc1ccc(OC(F)(F)F)cc1 | inconclusive: 29.1 µM [falling, single point] | – |
| CCOc1cc(/C=N/NC(=O)c2ccc(O)cc2)ccc1Oc1nc(Cl)ncc1F | inconclusive: 0.0651 µM [falling, full curve, poor fit] | – |
| CC1CN(S(=O)(=O)c2cccc(-c3cn4ccccc4n3)c2)CC(C)O1 (configuration not stated) | inconclusive: 29.1 µM [falling, single point] | – |
| CCc1cc(=O)oc2c3c(cc(OCC(=O)N[C@H](C(=O)O)[C@H](C)CC)c12)OC(C)(C)CC3 | – | inconclusive: -12.7% |
| NC(=NC(=O)c1ccc(OCC(F)(F)F)nc1)c1ccccc1 | inconclusive: 18.4 µM [falling, single point] | – |
| COc1ccc(OC)c(CNC(=O)CCn2c(=O)c3cccn3c3ccc(F)cc32)c1 | – | inconclusive: -18.2% |
| COc1ccc(S(=O)(=O)N2CCCCC2)cc1NC(=O)C1CC1C (configuration not stated) | inconclusive: 2.06 µM [falling, partial curve] | – |
| O=C(Nc1cnc2ccccc2c1)c1ccco1 | – | inconclusive: 30.2% |
| CC(NC(=O)c1cc(S(=O)(=O)N2CCCC2)cn1C)c1ccccc1 (configuration not stated) | inconclusive: 20.6 µM [activator, single point] | – |
| CCOC(=O)C1CCN(Cc2c(C(=O)N3CCOCC3)nc3c(C)cccn23)CC1 | – | inconclusive: -17% |
| CC(C)(C)c1csc(NC(=O)C2COc3ccccc3O2)n1 (configuration not stated) | inconclusive: 14.6 µM [activator, partial curve, poor fit] | – |

Some of these compounds in order of molecular weight, descending.

| Structure (SMILES) | Potency | lipid storage change, negative = inhibition |
| --- | --- | --- |
| COc1ccc(OC)c(CNC(=O)CCn2c(=O)c3cccn3c3ccc(F)cc32)c1 | – | inconclusive: -18.2% |
| COc1ccc(S(=O)(=O)N2CCCCC2)cc1NC(=O)C1CC1C (configuration not stated) | inconclusive: 2.06 µM [falling, partial curve] | – |
| CCc1ccc(C(O)(CNCc2ccccc2)c2ccccc2)cc1 (configuration not stated) | inconclusive: 29.1 µM [cytotoxic, single point] | – |

Going on with the list.

| Structure (SMILES) | Potency | lipid storage change, negative = inhibition |
| --- | --- | --- |
| O=C(COC(=O)c1cnccn1)NCc1ccc(Cl)cc1 | – | inconclusive: 129% |
| CC(NC(=O)c1ccc(N2CCCC2=O)cc1)c1ccccc1 (configuration not stated) | – | inconclusive: 48.1% |
| Cc1cnc(NC(=O)c2ccc(Cl)nc2)s1 | – | inconclusive: -18.3% |
| CCCCc1ccccc1NC(=S)NC1CCCC1 | – | inconclusive: -100% |
| CCOC(=O)C1(Cc2ccccc2)CCN(Cc2ccc3cc(NC(C)=O)ccc3n2)CC1 | – | inconclusive: 12.8% |
| COCCn1c(=O)[nH]c2cc(C(=O)NCCN3CCN(c4ccccc4)CC3)ccc2c1=O | – | inconclusive: 13.3% |
| Cc1nc2cc(NCc3cc([N+](=O)[O-])ccc3O)ccc2n1Cc1ccccc1 | – | inconclusive: 38.2% |
| O=C(Nc1cccc(NC(=O)c2cccs2)c1)c1cccnc1 | – | inconclusive: 35.3% |
| Cc1cc(NC(=O)/C=C/c2ccc(F)cc2)n(-c2nc3ccccc3[nH]2)n1 | – | inconclusive: -20.2% |
| CN(C(=O)C1CCN(S(=O)(=O)c2ccccc2)CC1)c1c(N)n(Cc2ccccc2)c(=O)[nH]c1=O | – | inconclusive: 10.5% |
| CCCn1c(N)c(C(=O)CSc2nnc3ccccn23)c(=O)n(C)c1=O | – | inconclusive |
| Cc1ccc(NC(=O)/C(=C/c2ccncc2)NC(=O)c2ccccc2)cc1 | inconclusive: 32.6 µM [falling, single point] | – |
| CSc1ccc(/C=N/S(=O)(=O)c2ccccc2)cc1 | – | inconclusive: -41.1% |
| C=CCSc1nncn1/N=C/c1ccc(OC)cc1 | inconclusive: 6.51 µM [activator, single point] | – |
| O=C(N/N=C\c1ccc(CN(Cc2ccc(Cl)cc2)S(=O)(=O)c2ccccc2)o1)C(=O)Nc1ccc(F)cc1 | inconclusive: 20.6 µM [activator, partial curve] | – |
| CN1C(=O)[C@H]2[C@@H](/C=C/c3ccccc3)N3C(=O)CN(Cc4ccccn4)C(=O)[C@@]3(C)[C@H]2C1=O | – | inconclusive: 12.2% |
| COc1ccc(OC)c(-c2nnc(NC(=O)C(C)Sc3nncn3C)s2)c1 (configuration not stated) | – | inconclusive: 46.6% |
| CSCC[C@H](N)C(=O)N1CCC(C(=O)N[C@H](C(=O)NCc2ccccc2F)C(C)C)CC1 | inconclusive: 0.0058 µM [falling, full curve, poor fit] | – |
| CCCCCCc1cc2cc(S(=O)(=O)c3ccc(Cl)cc3)c(=O)oc2cc1O | inconclusive: 20.6 µM [cytotoxic, single point] | – |
| COc1ccc(/C=C/C(=O)NNC(=O)c2ccncc2)c(OC)c1 | – | inconclusive: -0.0905% |
| Cc1cc(OCC(=O)NCC2CCC(C(=O)O)CC2)c2c(C)cc(=O)oc2c1 (configuration not stated) | – | inconclusive: 5.2% |
| COc1ccc(/C=C/C(=O)NC(C)CCc2ccccc2)cc1 (configuration not stated) | – | inconclusive: 2.44% |
| NC(=O)c1ccc(SCC(=O)OCC(=O)NC2CCCCCCC2)c([N+](=O)[O-])c1 | – | inconclusive: 10.1% |
| COc1ccc(C(=O)Nc2ccncc2)cc1S(=O)(=O)N1CCOCC1 | – | inconclusive: 4.62% |
| CCC(C)(NC(=O)c1ccccc1)C(=O)O (configuration not stated) | – | inconclusive: 5.92% |
| CN(C)c1ccnc2sc(C(=O)c3ccccc3)c(N)c12 | – | inconclusive: 19% |

| Structure (SMILES) | Potency | lipid storage change, negative = inhibition |
| --- | --- | --- |
| O=C(NCCS(=O)(=O)N1CCN(c2cccc(Cl)c2)CC1)c1ccco1 | – | inconclusive: -33.4% |
| Clc1ccc(C(c2nnnn2C2CCCC2)N2CCSCC2)cc1 (configuration not stated) | – | inconclusive: -15.8% |
| Cc1ccc(C(=O)Nc2nc3ccccc3s2)s1 | – | inconclusive: 158% |
| N#Cc1ccc(CSc2ccccn2)c(Cl)c1 | inconclusive: 29.1 µM [falling, single point] | – |
| COc1ccccc1-c1cc(C(=O)NC2CCN(C)CC2)c2ccc(Cl)c(C)c2n1 | inconclusive: 4.47 µM [activator, full curve, poor fit] | – |
| O=C(Nc1cccc2ccccc12)OCc1cncs1 | – | inconclusive: -32.3% [at 0.369 µM] |
| O=C(Nc1nc2ccccc2n1Cc1ccc(Cl)cc1)c1ccco1 | – | inconclusive: 31.6% |
| OC(COCC(F)(F)C(F)(F)C(F)(F)C(F)F)Cn1c2ccccc2c2ccccc21 (configuration not stated) | inconclusive: 29.1 µM [falling, single point] | – |
| O=c1[nH]c(CSc2nnnn2-c2ccccc2)nc2ccccc12 | – | inconclusive: 9.68% |
| O=C(N/N=C/C1CC2C=CC1C2)c1ccccc1O (configuration not stated) | – | inconclusive: -12.3% |
| O=C1C=CCC(/C=C/c2ccccc2)O1 (configuration not stated) | inconclusive: 25.9 µM [falling, partial curve] | – |
| CC(C)n1c(=S)[nH]c2scc(-c3cccs3)c2c1=O | – | inconclusive: -3.56% |
| COCCc1ncc(CN2CCCC(C(=O)Nc3cccc(-c4cccc(C)c4)c3)C2)cn1 (configuration not stated) | inconclusive: 29.1 µM [falling, single point] | – |
| Nc1cccc2c3c(oc12)CCCC3 | inconclusive: 0.731 µM [activator, full curve] | – |
| NC(=O)CSc1nnc(-c2ccc([N+](=O)[O-])cc2)o1 | inconclusive: 0.651 µM [cytotoxic, full curve] | – |
| Cc1cccc(C(=O)N2CCC(=O)N(C(COCc3ccc(Cl)cc3)Cc3ccccc3)CC2)c1 (configuration not stated) | – | inconclusive: 33% |
| CCCCC(c1nnnn1CC1CCCO1)N1CCN(c2nc3ccccc3s2)CC1 (configuration not stated) | inconclusive: 2.59 µM [activator, partial curve] | – |
| CSc1nsc(SCC(=O)Nc2ccc(NC(C)=O)cc2)n1 | – | inconclusive: 56.3% |
| CCSc1ccccc1C(=O)NCc1ccco1 | – | inconclusive: 44.9% |
| S=c1[nH]cnc2sc(-c3ccccc3)cc12 | – | inconclusive: -0.503% |
| O=C(COC(=O)c1ccc(Cl)cc1O)NC(=O)C1CCCCC1 | – | inconclusive: -20.2% |
| CCOC(=O)Cn1nnnc1CN(Cc1ccccc1)Cc1cc2cc(CC)ccc2[nH]c1=O | – | inconclusive: 21.2% |
| Cc1ccc(C(=O)NC(C(=O)NC2CCCC2)c2ccccc2)cc1 (configuration not stated) | inconclusive: 25.9 µM [activator, single point] | – |
| COc1ccc(C(C(=O)NC2CCCC2)N(C(=O)Cc2cccs2)C2CC2)cc1OC (configuration not stated) | – | inconclusive: -75.1% |
| Cc1nc(NC(=O)CSc2nnc(-c3ccc4c(c3)OCO4)o2)c(Cl)cc1Cl | – | inconclusive: 25.5% |

Five of the compounds above, with bars between the fields.
Structure (SMILES) | Potency | lipid storage change, negative = inhibition
CCCC(CCC)C(=O)NNc1cc(=O)c2c(=O)n(C)c(=O)n(C)c2[nH]1 | – | inconclusive: -1.67%
COCCn1c(=O)[nH]c2cc(C(=O)NCCN3CCN(c4ccccc4)CC3)ccc2c1=O | – | inconclusive: 13.3%
COc1ccc(/C=C/C(=O)NNC(=O)c2ccncc2)c(OC)c1 | – | inconclusive: -0.0905%
COc1ccc(C(=O)Nc2ccncc2)cc1S(=O)(=O)N1CCOCC1 | – | inconclusive: 4.62%
CCOC(=O)Cn1nnnc1CN(Cc1ccccc1)Cc1cc2cc(CC)ccc2[nH]c1=O | – | inconclusive: 21.2%
